Test: Small angle X-ray scattering of multilamellar vesicles, electron density profiles
Assay type: physicochemical
Conditions: PC/PG (9/1) MLVs, P/L 1/20 (w/w), 20°C
Description: Briefly, samples for SAXS examination were prepared by dissolving dry lipids in chloroform/methanol (2/1, vol/vol) and mixing to obtain the indicated proportions. The solvent was subsequently evaporated under a stream of oxygen-free dry nitrogen at 45°C and traces of solvent removed by a storage under high vacuum for 2 days. In order to obtain the Multiple Lamellar Vesicles (MLVs) the dry lipids were hydrated with an equal weight of buffer (5 mM HEPES pH 7.4). The aqueous lipid dispersion was thoroughly stirred to obtain a homogeneous dispersion, sealed under argon and kept until examination at 4°C. For X-ray measurements, lipid samples (∼20 µl) were deposited between two thin mica windows and mounted on a programmable thermal stage (Linkam, UK). The temperature was monitored by a thermocouple (Quad Service, Poissy, France) inserted directly into the lipid dispersion. Samples were exposed for 30 seconds to the beam (1.5 Å wavelength). The SAXS quadrant detector response was corrected for the uneven channel response using a static radioactive […] and S was calibrated for d-spacing using hydrated rat tail collagen. Information on the setup, calibration, and facilities are available on the station web site (http://www.srs.dl.ac.uk/ncd/station82/description.html).
The electron density profiles of lipid bilayers were obtained by Fourier synthesis of x-ray diffraction patterns. […]

In the case of “RRRRRRRRR-NH2 [R9, Polyarginine, cell-penetrating peptide, nine arginines, free N-terminal amino group, reference compound]”, the “Effect on lamellar phase organisation (Ld1/Ld2 heterogeneity, non lamellar phase)” value is reported as “inhibited the membrane heterogeneity in favour of a unique liquid disordered phase”.

For “RPKPQQFFGLM-NH2 [SP, Substance P, neuromodulator, primary amphipathic peptide, free N-terminal amino group, reference compound]”, the “Effect on lamellar phase organisation (Ld1/Ld2 heterogeneity, non lamellar phase)” value was “weak diffraction corresponding possibly to a non lamellar phase”.

Reference: PMC1790702, “Non-Metabolic Membrane Tubulation and Permeability Induced by Bioactive Peptides” (PLoS ONE, 2007)
